Data: patent USRE40086E1, “Method for treating bacterial infection with novel 7-substituted-9-substituted amino 6-demethyl-6-deoxytetracyclines” (Wyeth Holdings Corporation, priority 1991, dated 2008)
Structures can show the parent of a compound that is named as a salt. At least one compound was matched to its structure with a doubt left.

What was measured:
[1] = system: Salmonella cholerasuis (Agricultural); experiment: MIC vs recent clinical and agricultural isolates (Table V, KK); format: cell-based; parameters: unit not given beside the values; details: [15] tested
[2] = system: E. coli cell-free ribosomes, strain MRE 600 (TC Sensitive Host); experiment: E. coli in vitro cell free protein translation system (Table VI); format: biochemical
[3] = system: E. coli cell-free ribosomes, strain MRE 600 (tetM) (Tet M Host); experiment: as above; format: biochemical
[4] = system: TetM S30 extract, derivative of E. coli MRE600 containing the tetM determinant; experiment: E. coli in vitro transcription and protein translation, 35S-methionine incorporation (Table VIII)

In the case of CN(C)c1ccc(O)c2c1C[C@H]1C[C@H]3[C@H](N(C)C)C(O)=C(C(N)=O)C(=O)[C@@]3(O)C(O)=C1C2=O [Compound O, 7-(Dimethylamino)-6-demethyl-6-deoxytetracycline hydrochloride (minocycline hydrochloride), reference compound], the “MIC (range over isolates)” value [1] was 2->64, the “IC50, concentration of antibiotic required to inhibit protein synthesis by 50% compared to a drug-free control” value [2] was 0.4 µg/mL and the “fold more antibiotic required for 50% inhibition of protein synthesis in MRE 600 (tetM) extracts than in MRE 600 extracts” value ([3]; MRE 600 (tetM) vs MRE 600) was “approximately 5 fold”. The “IC50, concentration of antibiotic required to inhibit protein synthesis by 50% compared to a drug-free control” value ([3]; Tet M Host) was 2.0 µg/mL, the “% INHIBITION TetM S30” value ([4]; 0.06 mg/ml) was 0% and the “% INHIBITION TetM S30” value ([4]; 0.2 mg/ml) was 43%. For the same compound, the “% INHIBITION TetM S30” value ([4]; 1.0 mg/ml) was 68%.
